At least one structure is not confirmed: it was looked up by name or label, or the drawing left a doubt.
Assay: In vitro drug release from poly(EB-co-DO) implants with mathematical diffusion model
Type: physicochemical
Procedure: Drug-loaded poly(EB-co-DO) implants (1 cm long, 2.4 mm diameter, 50 mg) were individually incubated in 1 mL of PBS solution (pH=7.4) containing 3% methyl-beta-cyclodextrin (M-β-CD) at 37° C. At selected time points, the buffer solution was completely replaced with fresh solution of the same composition. The collected buffer solutions, in which the implant had been continuously and completely bathed for a period of time, were flash frozen and lyophilized. High-performance liquid chromatography (HPLC) was then used to determine the representative drug loading of implants in each group.
The samples were then centrifuged at 3000 rpm for 5 min to draw out any salts and M-β-CD. The supernatant was passed through 0.22 um syringe filters before being analyzed by HPLC for drug content.
An Agilent column (883995-906, ZORBAX StableBond 300 C8, 4.6×150 mm, 5 μm) and Shimadzu HPLC system (LC-2030C) with a UV-Vis detector was used for drug quantitation. […] Initial solvent B concentration was set at 5% and allowed to increase to 100% by the 5th minute. Flow was maintained for 5 min at this level before dropping to 5% after 12 min, which was maintained until the end of the run at 13 minutes. For analysis of DTG drug release, Solvent A was 0.1% TFA in HPLC grade water, and solvent B was 100% methanol. Initial solvent B concentration was set at 55% and increased to 60% for the 6-7th minute before being brought back down to 55% for the 7-10th minute. All three drugs were detected using a UV detector at a wavelength of 240 nm. […] A volume of 45 μl was injected for each sample run. […]
The solution for the above partial differential equation requires specification of a set of initial conditions and boundary conditions. […] In vitro release, then, is determined from the mass of drug in the implant at each time point subtracted from initial mass of drug within the implant (Co*V). Lastly, the diffusion coefficient is determined by fitting the cumulative drug release profile to data from in vitro drug release experiments and minimizing root mean squared error (RMSE).

Question: What does the source list for `C#C[C@]1(O)CC[C@H]2[C@@H]3CCC4=CC(=O)CC[C@@H]4[C@H]3CC[C@@]21CC` [LNG, levonorgestrel]?
Answer: Diffusion Coefficient (28 % Loading, P4 (37k, 20% DO) implants): 1.0 × 10^−9 cm^2/sec; burst release rates compared to DEX (28% loading, P4 implants): three-fold reduction in burst release rates; cumulative in vitro release compared to DEX from comparable implants (28% loading, P4 implants): slower cumulative release

Reference: patent US20250195415A1, “BIODEGRADABLE CONTROLLED RELEASE ANTIVIRAL AGENT IMPLANTS” (Yale University, priority 2022, published 2025)
